Host macrophage viability data for 106 compounds are collected here from the supplement of paper PMC12578635.

± gives the standard deviation of the averaged measurements. The list shows a part of the results. Repeats are few or missing, and single values can be far off.

This assay deals with RAW 264.7 macrophages infected with S. aureus JE2-lux. The assay is described as follows: host macrophage viability (CellTiter-Fluor) relative to DMSO vehicle; higher = more viable host cells. Conditions: 10 µM; treatment time 4 h; gentamicin 50 µg/ml.
Turning to `CCS(=O)(=O)N1CCC(n2cnc3cccnc32)CC1`, the host macrophage viability was 114%. Take `CN1C(=O)/C(=N/NCc2ccccc2)c2ccccc21`: the host macrophage viability is 127%.

For the compound `CC(=O)Nc1ccc(S(=O)(=O)Nc2ccc3c(c2)CCC(=O)N3)c(C)c1`, the host macrophage viability amounted to 103%. As to `Cc1nc(Oc2ccc(F)cc2)c2c(C)c(C)sc2n1`, the host macrophage viability came out at 106%. `Cc1ccccc1-c1noc(-c2sc3nc[nH]c(=O)c3c2C)n1`: the host macrophage viability came out at 132%.

Turning to `Cc1cc(C)n2c(SCC(=O)Nc3cccc4ccccc34)nnc2n1`, the host macrophage viability was found to be 115%. For `Cc1cc2ccccc2n2c(=O)n(CC(C)NC(=O)c3ccc(C(N)=O)cc3F)nc12` (stereo unspecified), the host macrophage viability was determined as 121%.

As for `CC(=O)Nc1ccc(C(=O)CSc2nc(O)c3c(C)cc(C)nc3n2)cc1`, the host macrophage viability came to 112%. Consider `Oc1cccc(C2=NN3C(C2)c2ccccc2OC3c2ccccn2)c1` (stereo unspecified), for which the host macrophage viability was found to be 99.6%. Regarding `Cc1ccc(NC(=O)c2cc(=O)c3ccccc3o2)c(C(=O)c2ccccc2)c1`, the host macrophage viability was determined as 101 ± 7.8%.

Regarding `Cc1ccc(C2NC(=O)NC3=C2C(=O)CC(C)(C)C3)cc1` (stereo unspecified), the host macrophage viability stood at 105%. Regarding `COc1cc(/C=C2/S/C(=N/c3ccc(C)cc3)NC2=O)cc(OC)c1OC`, the host macrophage viability worked out at 108%. `Cn1c2ccc(Br)cc2c2nnc(SCC(=O)NCc3ccccc3)nc21`: the host macrophage viability was 118%. Regarding `CCOc1ccc(-n2nnnc2CNS(=O)(=O)c2ccc(F)cc2F)cc1`, the host macrophage viability turned out to be 125%. Consider `CS(=O)(=O)c1ccc(S(=O)CC(=O)Oc2ccc(C3CCCCC3)cc2)c([N+](=O)[O-])c1` (stereo unspecified), for which the host macrophage viability stood at 92.2%. On to `CC(=O)CC1(O)C(=O)N(CCOc2ccccc2)c2ccccc21` (stereo unspecified), for which the host macrophage viability amounted to 143%. In the case of `O=c1c2sccc2n2c(=S)[nH]nc2n1CC1CCCO1` (stereo unspecified) it was 122%. As to `CC(C(=O)Nc1nc2c(s1)CCc1c-2cnn1C)N1C(=O)CSC1=O` (stereo unspecified), the host macrophage viability amounted to 120%.

As to `O=C(NCc1cccnc1)c1cnc2ccc(F)cc2c1O`, the host macrophage viability worked out at 114%. Next, `COc1cccc(-n2c(C)c(C)n3c4c(=O)n(CC(=O)OCc5ccccc5)c(=O)n(C)c4nc23)c1`: 106%. Next, `Cc1cccc(NC(=O)c2sc3nc(-c4ccccc4)cn3c2C)c1`: 126%; `CN(c1ncnc(N)c1[N+](=O)[O-])C1CCCCC1`: 101%. Regarding `Cc1ccc(CSc2nc(=O)n3ccc(C)cc3n2)cc1`, the host macrophage viability was determined as 102%. With `COc1cccc(CNC(=O)c2cc3n(n2)CCCN(Cc2ccccc2)C3=O)c1OC`, the host macrophage viability worked out at 118%. On to `Nc1cc(-c2ccco2)nn(CC(=O)N2CCOCC2)c1=O`, for which the host macrophage viability was 94.9%.

Take `Cc1cccc2cc(CN(Cc3ccccc3)C(=O)c3ccccc3F)c(Cl)nc12`: the host macrophage viability is 114%. In the case of `COC(=O)c1sc2ccccc2c1NC(=O)c1ccc2ncsc2c1` it was 105%; in that of `CCc1cc2c(N3CCC(C(=O)NCCCN4CCN(C)CC4)CC3)ncnc2s1`, 98.6%. With `Cc1cc(C)nc(SCCS(=O)(=O)c2nc3ccccc3s2)n1`, the host macrophage viability was determined as 115%. In the case of `O=C(NC1CCCCC1)c1c(O)nc2sccn2c1=O`, the host macrophage viability turned out to be 116%.

Take `Cn1c(=O)c2[nH]c(SCC(=O)c3ccc4c(c3)OCCO4)nc2n(C)c1=O`: the host macrophage viability came to 109%. As for `Cc1cc(Nc2ccc(F)c(Cl)c2)n2ncnc2n1`, the host macrophage viability amounted to 128%. Take `O=C(Cc1ccc(-c2ccccc2)cc1)Nc1nnc2n1CCS2`: the host macrophage viability was 115%. For `O=C1CN(S(=O)(=O)c2ccc(Br)cc2)c2ccccc2N1`, the host macrophage viability was found to be 106%. For the compound `CCOC(=O)c1sc(NC(=O)C2=COCCO2)cc1C`, the host macrophage viability came out at 110%. Turning to `CCC(Cc1ccccc1)Nc1nn2nnnc2c2ccccc12` (stereo unspecified), the host macrophage viability is 120%. Consider `O=C(Nc1ccc(F)cc1F)N1CCc2nc(N3CCCCC3)ncc2C1`, for which the host macrophage viability is 121%. As to `COc1cccc(C(=O)Nc2cc(=O)n(C)c(=O)n2C)c1`, the host macrophage viability is 128%. Next, `CCc1nnc(NC(=O)c2nn(-c3ccc(C)cc3)c3c(=O)n(C)cnc23)s1`: 108%; `Cc1cccc(-n2nnc(C(=O)Nc3ccccc3)c2C)c1`: 133%. As for `O=C(CSc1ccc(-c2ccco2)nn1)Nc1cccc(F)c1`, the host macrophage viability came out at 119%.

In the case of `COCCNc1nc(N)c([N+](=O)[O-])c(Nc2cccc(Cl)c2)n1`, the host macrophage viability was 105%. In the case of `Cc1ccc(S(=O)(=O)n2nc(-c3ccccc3Cl)nc2N)cc1` it was 111%. In the case of `CCOc1ccccc1NC(=O)C1CCN(c2ncnc3oc(C)c(C)c23)CC1` it was 117%; in that of `O=C(CCCOc1ccc(Cl)cc1Cl)N/N=C1/C(=O)Nc2ccccc21`, 103 ± 5.8%. In the case of `CCCCC(=O)Nc1ncc(Cc2ccc(Cl)c(Cl)c2)s1` it was 110%.

With `O=C(Cc1ccccc1)NNC(=O)CC1SC(=O)NC1=O` (stereo unspecified), the host macrophage viability worked out at 98%. `O=C1c2ccncc2C(=O)N1CNc1ccccn1`: the host macrophage viability stood at 120%. On to `CCN(CC)CCN1C(=O)C(O)=C(C(=O)c2ccc(OC)cc2C)C1c1ccc(O)cc1` (stereo unspecified), for which the host macrophage viability is 115%. Next, `CC(C)Oc1ccc(C(=O)Nc2cccc3c2C(=O)c2ccccc2C3=O)cc1`: 124%; `Cc1cc(C)c2ccc(NC(=O)c3c(-c4ccncc4)noc3C)nc2n1`: 103%; `CC(=O)c1ccc(NC(=O)c2ccc(S(=O)(=O)N3CCC(C)CC3)cc2)cc1`: 106%. On to `Cc1cc(C)cc(-n2nc3c(c2NC(=O)/C=C\c2ccc4c(c2)OCO4)CSC3)c1`, for which the host macrophage viability was determined as 107%. As for `O=C(O)c1cccnc1SC1CC(=O)N(c2ccc(Cl)cc2[N+](=O)[O-])C1=O` (stereo unspecified), the host macrophage viability came out at 128%. Turning to `O=C(CC1Nc2ccccc2NC1=O)Nc1ccc2c(c1)OCO2` (stereo unspecified), the host macrophage viability turned out to be 117%.

For `O=C(O)CSc1ccc(S(=O)(=O)C(F)(F)F)cc1[N+](=O)[O-]`, the host macrophage viability was 101%.

Consider `Cc1c(C(=S)Nc2ccccc2)cnn1-c1ccc([N+](=O)[O-])cc1`, for which the host macrophage viability was found to be 116%.

For `CC(=O)c1cccc(NC(=O)Nc2nc(SCc3c(F)cccc3Cl)ns2)c1`, the host macrophage viability is 120%. Take `CCOC(=O)c1c(C)oc2c1/C(=C/NCc1ccccn1)C(=O)c1ccccc1-2`: the host macrophage viability was 126%. As for `O=C(COc1ccccc1)Nc1nc2ccccc2s1`, the host macrophage viability worked out at 108%. Next, `COCCCNC(=O)CN1CCN(c2ncc(NC(=O)c3ccc(Cl)cc3)cc2C(=O)O)CC1`: 116%. Turning to `Cc1csc(-c2csc(S(=O)(=O)N3CCC(C)CC3)c2)n1`, the host macrophage viability was 88.6%. Consider `CCOC(=O)c1sc(NC(=O)C2CC2)cc1C`, for which the host macrophage viability amounted to 111 ± 2.4%. With `CCOc1ccc(NC(=O)c2cccnc2-c2ccsc2)cc1`, the host macrophage viability was 114%. `O=C(c1noc2ccc(S(=O)(=O)N3CCN(Cc4ccc5c(c4)OCO5)CC3)cc12)N1CCCC1`: the host macrophage viability amounted to 130%. Next, `Cc1nn(-c2nc3ccccc3[nH]2)c2c1C(c1ccccc1C(F)(F)F)CC(=O)N2` (stereo unspecified): 106%; `Cc1cc(C)c2nc(NNC(=O)COc3ccccc3)sc2c1`: 122 ± 11%. For `CCc1nnsc1C(=O)Nc1ncc([N+](=O)[O-])s1`, the host macrophage viability was 91.9%. Turning to `Cc1nc2c(ccc3nc(NC(=O)c4ccc(Br)s4)sc32)s1`, the host macrophage viability turned out to be 125 ± 14%. As to `COc1cc(C2C(C(=O)c3cccs3)=C(O)C(=O)N2c2nncs2)ccc1O` (stereo unspecified), the host macrophage viability amounted to 115%. On to `Cc1ccc(C(C)C)c(OCCCN2C(=O)C(=O)c3cccc(C)c32)c1`, for which the host macrophage viability amounted to 113%. For the compound `Cc1cccc(CNc2ncnc3c2c(C)c(C)n3-c2ccc(Cl)cc2)c1`, the host macrophage viability turned out to be 102%. With `CCc1cc2c(N3CCCC(C(=O)Nc4ccc5c(c4)OCCO5)C3)ncnc2s1` (stereo unspecified), the host macrophage viability was determined as 125%. Next, `O=C(CN1CCC(n2cnc3cc(F)ccc32)CC1)Nc1nccs1`: 111%; `Cc1c[nH]c(=O)nc1SCc1ccc([N+](=O)[O-])cc1`: 115%. Consider `CCOC(=O)c1sc(NC(=O)/C=C/c2ccc([N+](=O)[O-])s2)cc1C`, for which the host macrophage viability was 114.6 ± 1.1%. For the compound `O=C(CSc1ncnc2c1cnn2-c1cccc(Cl)c1)NCc1ccc2c(c1)OCO2`, the host macrophage viability worked out at 114%. Take `CCOC(=O)c1cnn(-c2ccc(C(=O)Nc3ccc(C(F)(F)F)cc3)cn2)c1N`: the host macrophage viability was 104%. As for `COc1cccc2cc(C(=O)NC(C)=O)/c(=N/c3cccc4ccccc34)oc12`, the host macrophage viability was 108 ± 13%. Consider `CCOC(=O)c1c(SCC(=O)Nc2ccc([N+](=O)[O-])cc2)nc(=O)[nH]c1C`, for which the host macrophage viability was found to be 106%. Next, `O=C(OCn1nnc2ccccc2c1=O)C(c1ccccc1)c1ccccc1`: 103%.

Consider `COc1ccc(NC(=O)CSc2nc(C)c(C)c(=O)[nH]2)cc1OC`, for which the host macrophage viability worked out at 136%. Next, `O=C(CCCS(=O)(=O)c1ccccc1)Nc1nc2c(F)cc(F)cc2s1`: 135%; `O=C(NCCC1CCCCN1S(=O)(=O)c1ccc(F)cc1)C(=O)NCc1ccc2c(c1)OCO2` (stereo unspecified): 102%.

As for `O=C(Cn1c(=O)n(Cc2ccco2)c(=O)c2oc3ccccc3c21)Nc1ccc(Cl)cc1`, the host macrophage viability is 116%. For the compound `Cc1ccc(NC(=O)c2cc(S(=O)(=O)N3CCCCC3)ccc2F)cc1C`, the host macrophage viability was determined as 123%.

In the case of `Cc1cc(N2CCc3ccccc32)nc(-n2cc([N+](=O)[O-])cn2)n1`, the host macrophage viability amounted to 109%. With `COc1ccc(C2CC(c3ccc(NS(C)(=O)=O)cc3)=NN2S(C)(=O)=O)cc1OC` (stereo unspecified), the host macrophage viability was 102 ± 7.7%. Turning to `CCOC(=O)C(C)Oc1cccc2c(=O)n(CC(=O)N3CCCCC3)ccc12` (stereo unspecified), the host macrophage viability stood at 117%. Next, `COc1ccc(C(=O)N2CCc3c(c(C(=O)NCc4ccc(F)cc4)nn3C)C2)cc1`: 103%; `CC(=O)Nc1cccc(-c2nn3c(C)nnc3s2)c1`: 125%; `Cc1cc(Cl)cc2sc(N(Cc3cccnc3)C(=O)C(C)C)nc12`: 65%.

Turning to `COc1cccc(NC(=O)c2ccc(S(=O)(=O)N3CCc4ccccc4C3)cc2)c1`, the host macrophage viability worked out at 125%. Next, `CC(=O)Nc1cccc(NC(=O)NC2CC(=O)N(c3ccc4c(c3)OCCO4)C2)c1` (stereo unspecified): 119%; `CCc1cc(C)cc(OC(=O)CSc2nc(-c3ccc(OC)cc3)nc3cc(=O)[nH]n23)c1`: 137%; `O=C(Nc1nc2c(s1)COc1ccccc1-2)c1cccc(NS(=O)(=O)c2ccc(F)cc2)c1`: 120%. As to `CNC(=O)c1ccsc1NC(=O)c1ccc(S(=O)(=O)N2CCCC2)cc1`, the host macrophage viability was found to be 114%. For `Nc1cc(OC(=O)c2ccc(F)cc2)nn1S(=O)(=O)c1ccccc1`, the host macrophage viability amounted to 107%.

Regarding `Cc1cc2oc(C(=O)NCc3ccc4c(c3)OCO4)c(C)c2cc1C`, the host macrophage viability is 119%. Next, `COCCn1ccc2c(OCC(=O)NCc3ccc(C)cc3)cccc2c1=O`: 103%. For the compound `COCCNC(=O)C1CCN(c2nc(-c3ccc(Cl)cc3)no2)CC1`, the host macrophage viability amounted to 104%. Consider `Cc1nc2cc(F)ccc2n1C1CCN(C(=O)Nc2ccccc2-c2ccccc2)CC1`, for which the host macrophage viability came to 110%. `Cc1ccc(CN(C(=O)CC(C)C)c2nc3[nH]c(C)c(C)c(=O)n3n2)cc1`: the host macrophage viability was 127%. As for `CCS(=O)(=O)c1nc2ccccc2n1Cc1cccc2ccccc12`, the host macrophage viability stood at 108%. In the case of `Cc1ccc(C(=O)c2sc3nc4c(c(-c5ccco5)c3c2N)CCCCC4)cc1`, the host macrophage viability worked out at 112%. Regarding `N#C/C(C(=O)NCc1ccccc1)=C1/N=C(NC(=O)c2cccnc2)c2ccccc21`, the host macrophage viability was 131%.
